Assay results: patent EP4803549A1
Results are given in words; binding and its absence hold for the method and conditions named. Some results given as binding are weak or reduced against the parent protein; the word gives no strength. For part of these data: Sequences can lack the tags named with a protein.

The chains behind the UniProt entries cited, without tags or fusion partners. Where a name states a change or a piece, a line headed by the entry shows the natural chain unless it says otherwise.
UniProt Q02223: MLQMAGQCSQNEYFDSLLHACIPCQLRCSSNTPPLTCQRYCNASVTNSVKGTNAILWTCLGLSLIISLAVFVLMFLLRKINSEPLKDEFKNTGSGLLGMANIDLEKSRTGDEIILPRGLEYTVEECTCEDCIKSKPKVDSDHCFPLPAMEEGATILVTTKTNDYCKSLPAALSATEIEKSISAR
UniProt Q9NZD1: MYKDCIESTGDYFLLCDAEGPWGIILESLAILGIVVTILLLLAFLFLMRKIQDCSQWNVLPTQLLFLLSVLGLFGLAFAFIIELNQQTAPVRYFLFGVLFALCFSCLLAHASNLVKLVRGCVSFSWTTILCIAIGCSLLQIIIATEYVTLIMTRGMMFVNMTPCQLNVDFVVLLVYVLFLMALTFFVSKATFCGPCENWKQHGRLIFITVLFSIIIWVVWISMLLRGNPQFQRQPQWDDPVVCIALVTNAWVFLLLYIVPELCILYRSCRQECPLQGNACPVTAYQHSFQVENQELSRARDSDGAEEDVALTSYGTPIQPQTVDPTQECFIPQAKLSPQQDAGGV

Assays:
[1] = target: human BCMA protein expressed on the cell surface (human) (UniProt Q02223); test: flow cytometry on CHOK1-huBCMA cells
[2] = target: human BCMA protein expressed on the cell surface (human) (UniProt Q02223); test: flow cytometry on NCI-H929 cells endogenously expressing human BCMA
[3] = target: human GPRC5D protein expressed on the cell surface (human) (UniProt Q9NZD1); test: flow cytometry on 293T cells expressing human GPRC5D

| binding [1] | binding [2] | binding [3] | Binder |
| --- | --- | --- | --- |
| binds | binds | – | 269B094 (a fully human monoclonal antibody targeting BCMA) (antibody, V domains shown) VH: DVQLVESGGGLVQPGGSLRLSCAASGRTFSSIVMGWFRQAPGKEREFVGAIMWNDGITYLQDSVKGRFTIFRDNAKNTVYLQMNSLKLEDTAVYYCAASKGRYSEYEYWGQGTQVTVSS |
| – | – | binds | camelid-derived anti-GPRC5D VHH-Fc antibody (antibody, human IgG1, V domains shown) VH: EVQLQESGGGLVQAGGSLRLSCAASGIFLSASVMRWYRRAPGKQRELVASMLNSNTNYADSVKGRFTISRDNTKNTMYLQMNSLKPEDTAVYYCNAERSGVYWGQGTQVTVSS |
